PubChem BioAssay AID504786 | Drosophila RNAi Screening Center, 2011

- Test: 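Knock-downs reducing HIF reporter induction by the iron chelator DFO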 (primary screen)
- System: Drosophila S2 cells with a stable HIF luciferase reporter
- Knock-down reagent: long dsRNA against Drosophila genes, about 0.2 µg dsRNA per well of a 384-well plate
- Timing: three days of knock-down, then 20 h of DFO before reading
- Treatment: desferrioxamine (DFO) at 100 µM, an iron chelator that mimics hypoxia, for 20 h
- Measured: 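Firefly luciferase driven by the mouse ldh-a hypoxia-response element, measured after 20 h of 100 µM DFO; z-scores per plate, higher means more signal lost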
- Direction: z-score: higher = stronger loss of HIF reporter signal
The screen tested about 21,000 reagents; below is a random part of those that have a named target and a result. 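Primary screen; positive scores mean lost reporter signal, so the sign may be inverted from the usual convention.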 Reagents against one gene are numbered here. Further read-outs or replicates are left out here. Reagent sequences are not shown.

gene knocked down | dsRNA no. | z-score, replicate 1 | z-score, replicate 2
CG30050 | 1 | -0.2 | -0.1
CG40486 | 1 | 0 | 0.3
Act5C | 1 | 0.6 | 0.1
orb | 1 | 3.8 | 4.5
APP-BP1 | 1 | -0.5 | -0.9
psidin | 1 | 0.1 | 0
eIF2Bdelta | 1 | -0.3 | -0.6
CG5267 | 1 | -0.3 | -0.5
wuho | 1 | -0.3 | -0.2
Eig71Eh | 1 | -0.1 | -0.3
Ugt35A1 | 1 | -0.3 | -0.3
Zfrp8 | 1 | -0.1 | 0
RacGAP84C | 1 | -0.3 | -0.1
Rab14 | 1 | -0.2 | 0
CG46298 | 1 | -0.2 | 0
CG30156 | 1 | -0.4 | -0.3
Mdh2 (retired record) | 1 | -0.5 | 0
Gpat4 | 1 | -0.3 | -0.1
RPA1 | 1 | -0.3 | 0
CG5399 | 1 | -0.2 | -0.2
Atx-1 | 1 | -0.3 | -0.7
Vha68-3 | 1 | -0.4 | -0.5
Nadk2 | 1 | -0.3 | -0.6
Tep3 | 1 | 0.1 | -0.3
Osi6 | 1 | -0.4 | 0.2
Cyp308a1 | 1 | -0.7 | -0.1
alphaTub84B | 1 | 1.6 | 2.8
Sytalpha | 1 | -0.3 | 0
Cap-D3 | 1 | -0.2 | -1.1
CG12419 (retired record) | 1 | -0.1 | 0
CG4133 | 1 | -0.1 | -0.6
Ugt37B1 | 1 | -0.3 | -0.4
Alk | 1 | -0.3 | -0.7
CG9451 | 1 | -0.1 | -0.3
CG5916 | 1 | -0.2 | -0.1
dnd | 1 | 0.1 | -0.2
CG11634 | 1 | -0.2 | -0.5
CCT8 | 1 | 0.4 | 2.3
CG5614 | 1 | -0.2 | -0.5
CG31249 | 1 | -0.3 | 0.5
Cyp316a1 | 1 | -0.3 | 0.5
Wnt2 | 1 | 0.1 | 0
Wnt2 | 2 | -0.3 | -0.5
Ubc2 | 1 | -0.2 | -0.3
Ubc2 | 2 | 0.1 | 1.1
Cpr72Eb | 1 | -0.2 | 0.1
brv1 | 1 | -0.2 | -0.2

As entered above.
Value of Eig71Eh under “z-score, replicate 1”: -0.1
CG31249, z-score, replicate 2 → 0.5
Entry for CG30156 under “z-score, replicate 2”: -0.3
Result of eIF2Bdelta in “z-score, replicate 1”: -0.3
Result for CG5916 under “z-score, replicate 2”: -0.1
Result of CG40486 under “z-score, replicate 1”: 0

The listing continues:
gene knocked down | dsRNA no. | z-score, replicate 1 | z-score, replicate 2
CG18210 (retired record) | 1 | -0.3 | 1.2
CG18210 (retired record) | 2 | -0.3 | -0.5
Sirt2 | 1 | 0.1 | 0
unc | 1 | 0.3 | 0.5
CG5214 | 1 | -0.3 | -0.4
CG15625 | 1 | -0.1 | 0.3
Sar1 | 1 | -0.4 | -0.8
Sbds | 1 | -0.3 | 0.1
ACXC | 1 | -0.2 | -0.2
caz | 1 | -0.2 | -0.5
Argp | 1 | -0.4 | -0.7
aph-1 | 1 | -0.4 | -0.4
CG14545 | 1 | -0.3 | -0.7
CG34149 | 1 | -0.3 | -0.5
DCTN6-p27 | 1 | -0.3 | -0.4
Ac3 | 1 | -0.2 | -0.4
CG15203 | 1 | -0.3 | -1.2
tap | 1 | -0.5 | -0.4
chico | 1 | 0 | -0.2
CG31493 | 1 | -0.4 | -0.5
ry | 1 | -0.3 | -0.3
CG12003 | 1 | -0.4 | -0.3
Gr63a | 1 | -0.2 | -0.3
CG34135 | 1 | 0 | -0.1
CG33998 | 1 | 0.9 | -0.2
GstZ1 | 1 | -0.5 | -0.9
Swt1 | 1 | -0.2 | -0.5
Gr59e | 1 | -0.1 | 0.6
CG3492 | 1 | -0.2 | 0
CG17562 | 1 | -0.2 | -0.3
Osi15 | 1 | -0.1 | 0.5
TTLL3B | 1 | -0.4 | 0
CR15280 | 1 | -0.2 | -0.4
mRpS2 | 1 | 0.2 | -0.8
TM4SF | 1 | -0.4 | -0.1
CG13287 | 1 | -0.5 | -0.1
